Assay results from patent US20200165572A1, “ENGINEERED SUBSTRATES FOR HIGH-THROUGHPUT GENERATION OF 3D MODELS OF TUMOR DORMANCY, RELAPSE AND MICROMETASTASES FOR PHENOTYPE SPECIFIC DRUG DISCOVERY AND DEVELOPMENT” (Arizona Board of Regents on behalf of Arizona State …, priority 2015, published 2020).
Some entries share one result that the patent states for a list of compounds.

System: dormant T24 3DTMs
Conditions: single agent, 0.5 μM, 96 hours

Row | Compound | cell death [%]
1 | CC(C)C[C@H](NC(=O)[C@H](Cc1ccccc1)NC(=O)c1cnccn1)B(O)O [bortezomib] | < 10
2 | C/C=C(/C)C(=O)O[C@H]1C(C)=C2[C@H]([C@@H]1OC(=O)CCCCCCC)[C@@](C)(OC(C)=O)C[C@H](OC(=O)CCC)[C@@]1(O)[C@H]2OC(=O)[C@@]1(C)O [thapsigargin] | < 10
